Experimental data as given in paper PMC5974324.
No constants are given. Whether binding was seen depends on the method and setting. Binding seen in cells or lysates may run through a third protein. Some binding calls cover weakened binding; strength is not graded here.

Protein sequences, listed by entry. Tags and fused reporters are not part of them.
UniProt O95863: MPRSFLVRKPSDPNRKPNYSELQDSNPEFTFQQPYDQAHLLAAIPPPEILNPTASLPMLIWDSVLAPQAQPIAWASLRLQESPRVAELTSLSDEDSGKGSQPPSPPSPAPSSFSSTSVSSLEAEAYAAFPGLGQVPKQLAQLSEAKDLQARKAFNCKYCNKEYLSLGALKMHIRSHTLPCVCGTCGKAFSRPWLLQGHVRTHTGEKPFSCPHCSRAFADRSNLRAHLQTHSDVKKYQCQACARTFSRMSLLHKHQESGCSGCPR
UniProt Q13547: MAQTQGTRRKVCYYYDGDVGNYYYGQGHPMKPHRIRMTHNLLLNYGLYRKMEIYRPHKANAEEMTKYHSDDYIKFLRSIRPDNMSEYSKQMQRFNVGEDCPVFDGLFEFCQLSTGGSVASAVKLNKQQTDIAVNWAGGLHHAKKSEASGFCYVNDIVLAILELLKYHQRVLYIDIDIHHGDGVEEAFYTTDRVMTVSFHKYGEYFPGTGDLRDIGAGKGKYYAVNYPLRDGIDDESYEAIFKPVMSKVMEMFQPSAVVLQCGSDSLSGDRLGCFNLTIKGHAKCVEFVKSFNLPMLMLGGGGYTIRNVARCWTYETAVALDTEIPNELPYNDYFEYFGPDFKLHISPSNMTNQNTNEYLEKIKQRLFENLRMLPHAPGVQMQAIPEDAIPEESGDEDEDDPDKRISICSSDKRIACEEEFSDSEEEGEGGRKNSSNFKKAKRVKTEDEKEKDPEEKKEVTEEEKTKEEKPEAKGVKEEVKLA
UniProt Q92769: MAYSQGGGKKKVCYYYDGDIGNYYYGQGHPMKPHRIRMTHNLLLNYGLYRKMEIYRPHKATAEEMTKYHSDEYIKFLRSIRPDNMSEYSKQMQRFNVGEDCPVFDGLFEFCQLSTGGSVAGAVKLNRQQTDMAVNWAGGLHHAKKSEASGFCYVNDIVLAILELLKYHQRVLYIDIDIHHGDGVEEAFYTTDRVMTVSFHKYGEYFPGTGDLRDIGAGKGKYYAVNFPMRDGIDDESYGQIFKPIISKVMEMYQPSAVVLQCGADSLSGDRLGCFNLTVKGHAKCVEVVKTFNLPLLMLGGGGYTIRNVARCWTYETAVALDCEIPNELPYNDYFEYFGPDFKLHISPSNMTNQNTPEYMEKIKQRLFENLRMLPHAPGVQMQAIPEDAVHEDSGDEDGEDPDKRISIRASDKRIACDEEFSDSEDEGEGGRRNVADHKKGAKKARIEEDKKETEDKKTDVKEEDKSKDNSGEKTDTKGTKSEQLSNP

Target: SNAIL (snail family zinc finger 1; SNAI1) (human (endogenous in RH30)) (UniProt O95863)
Assay: co-IP; 100 ug nuclear extract of RH30 cells (Nuclear Complex Co-IP Kit), 2 ug anti-SNAIL antibody or no antibody, IP Low Buffer, Protein G beads; Western blot of the precipitate

Substance	binding
histone deacetylase 1 (HDAC1) (from UniProt Q13547 1-482)	binds
histone deacetylase 2 (HDAC2) (from UniProt Q92769 1-488)	binds
